In patent US6642353B1, “Peptide ligands for the erythropoietin receptor” (Chugai Seiyaku Kabushiki Kaisha, priority 2000, dated 2003):
No constants are given. Whether binding was seen depends on the method and setting.

T1: chimeric Ig-EPOR protein (human; murine, UniProt P19235 25-250)
T1 construct: extracellular domain; Secreted from COS-7 cells transfected with pcDNA3-IgG1-EPOR; major species about 59 kDa; also called IgG-EPOR; chimeric receptor; not shown: hinge region, CH2 and CH3 domains of the murine IgG1 heavy chain
T1 sequence (looked up): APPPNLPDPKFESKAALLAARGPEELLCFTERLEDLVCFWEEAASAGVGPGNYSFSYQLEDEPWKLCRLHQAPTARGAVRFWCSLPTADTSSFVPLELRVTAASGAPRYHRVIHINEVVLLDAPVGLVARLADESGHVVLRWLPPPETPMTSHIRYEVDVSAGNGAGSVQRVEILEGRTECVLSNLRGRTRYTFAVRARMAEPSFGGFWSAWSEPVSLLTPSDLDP


biological target: T1, chimeric Ig-EPOR protein; assay: EPOR-specific magnetic bead phage ELISA

Question: With EWVYSRQSWGGQWKDGVRDEYTMTPGDPVANKYSLMTP (not shown: M13 phage pIII coat protein) [phage clone N6] as the binder, how does the binding read?
Answer: no binding (tested: <0.1 (relative affinity))

Question: EFVVWPRGWVGHCKGCRVDEYSGDPSNLEAQTHDMNFQ (not shown: M13 phage pIII coat protein) [phage clone N7] was tested. Which binding did it give?
Answer: no binding (tested: <0.1 (relative affinity))

Question: Which binding does the source give for GLNICRPGWVGHCNDSLRDEYATNPRTPGPLSYNLQPT (not shown: M13 phage pIII coat protein) [phage clone N8] here?
Answer: no binding (tested: <0.1 (relative affinity))

Question: How did the binding turn out when SVDVCNQGGVGRCNDGLGDEYASKPSYQEAPRYNPNLR (not shown: M13 phage pIII coat protein) [phage clone N9] was run?
Answer: no binding (tested: <0.1 (relative affinity))

Question: With DFEGSLREWDGDWPEWLRDEYARPSYPNPHKANQKPP (not shown: M13 phage pIII coat protein) [phage clone N10] as the binder, how does the binding read?
Answer: no binding (tested: <0.1 (relative affinity))

Question: For ALDVGRWDGVGHCKGCLKDEYTTLDSKNNPQISQVSPT (not shown: M13 phage pIII coat protein) [phage clone N11], which binding is on record?
Answer: no binding (tested: <0.1 (relative affinity))

Question: Which binding does the source give for DVEVGRRACVGYCQEFLRDEYTATPSYPDKHSNYLNPP (not shown: M13 phage pIII coat protein) [phage clone N12] here?
Answer: no binding (tested: <0.1 (relative affinity))

Question: For DIAVCRGGCVGLCEEGLRDEYACNVKKPVPHSYKLNTP (not shown: M13 phage pIII coat protein) [phage clone N13], which binding is on record?
Answer: no binding (tested: <0.1 (relative affinity))

Question: Which binding does the source give for RLEDGDEGRVWHSSDLLSDEYASTPSYPLTPNYYEYPP (not shown: M13 phage pIII coat protein) [phage clone N1] here?
Answer: no binding (tested: <0.1 (relative affinity))

Question: With GWAGCRSGGAGQCKEGAGDEYAENPSYPVPPRKHLNRL (not shown: M13 phage pIII coat protein) [phage clone N2] as the binder, how does the binding read?
Answer: no binding (tested: <0.1 (relative affinity))

Question: DLNVGCPGYVGHCADWLGDEYPVHPNPEVPQTLNLKPH (not shown: M13 phage pIII coat protein) [phage clone N3] was tested. Which binding did it give?
Answer: no binding (tested: <0.1 (relative affinity))

Question: How did the binding turn out when ELDMLRGGGVGQSKESLRDEYDHKTSTPVPPNQKLPPP (not shown: M13 phage pIII coat protein) [phage clone N4] was run?
Answer: no binding (tested: <0.1 (relative affinity))

Question: For NSDVTRRGWADHWREWNWDEYASTPTHPASHSSYLNPP (not shown: M13 phage pIII coat protein) [phage clone N5], which binding is on record?
Answer: no binding (tested: <0.1 (relative affinity))
